Results as given in patent US20240182526A1 (University of Southern California, priority 2021, published 2024).
Plain letter strings leave the end groups untold. Where no end group is shown, it is not given here. [ ]: non-standard residue; d: D form. pY = N[C@@H](Cc1ccc(OP(=O)(O)O)cc1)C(=O)O

Assay: peptide made by a vendor
Settings: whole synthesis

Substance | purity (crude or final not stated)
PRQPYFKQNC | purity>=85%
PRQP[pY]FKQNC | purity>=85%
